Test [1] addresses T1, endogenous Vangl2 (human (endogenous in SKBR7)) (UniProt Q9ULK5).
T1 sequence: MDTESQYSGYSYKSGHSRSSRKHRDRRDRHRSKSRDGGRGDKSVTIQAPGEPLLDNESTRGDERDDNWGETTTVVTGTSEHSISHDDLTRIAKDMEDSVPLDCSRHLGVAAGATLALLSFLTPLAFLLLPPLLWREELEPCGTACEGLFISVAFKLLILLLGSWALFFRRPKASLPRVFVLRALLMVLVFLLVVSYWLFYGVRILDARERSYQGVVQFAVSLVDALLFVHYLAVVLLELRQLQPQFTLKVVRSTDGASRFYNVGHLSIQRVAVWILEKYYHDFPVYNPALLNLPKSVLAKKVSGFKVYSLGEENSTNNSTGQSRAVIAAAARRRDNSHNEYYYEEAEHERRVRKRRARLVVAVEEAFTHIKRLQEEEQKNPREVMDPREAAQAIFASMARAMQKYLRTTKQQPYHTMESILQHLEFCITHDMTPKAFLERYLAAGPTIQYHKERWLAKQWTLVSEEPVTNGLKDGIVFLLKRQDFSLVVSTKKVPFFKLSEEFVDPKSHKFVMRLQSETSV
Description: co-IP; 2G4 mAb immunoprecipitation from SKBR7 cell lysates, 16% SDS-PAGE, blot with anti-GAPDH antibody (Figure S5).

By UniProt entry, the sequences of proteins in these tests, tags left out.
UniProt P04406: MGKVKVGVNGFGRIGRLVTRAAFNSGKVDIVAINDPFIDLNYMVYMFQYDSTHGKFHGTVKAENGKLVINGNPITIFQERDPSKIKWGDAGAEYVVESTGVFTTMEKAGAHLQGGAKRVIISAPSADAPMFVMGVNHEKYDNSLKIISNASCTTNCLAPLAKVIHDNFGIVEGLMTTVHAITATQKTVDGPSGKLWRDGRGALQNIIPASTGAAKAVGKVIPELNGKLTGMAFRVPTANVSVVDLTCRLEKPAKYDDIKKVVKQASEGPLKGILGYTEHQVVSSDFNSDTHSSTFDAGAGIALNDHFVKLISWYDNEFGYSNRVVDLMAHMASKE

For a further test, the target named is T2, myc-Vangl1 (UniProt Q80Z96).
T2 sequence: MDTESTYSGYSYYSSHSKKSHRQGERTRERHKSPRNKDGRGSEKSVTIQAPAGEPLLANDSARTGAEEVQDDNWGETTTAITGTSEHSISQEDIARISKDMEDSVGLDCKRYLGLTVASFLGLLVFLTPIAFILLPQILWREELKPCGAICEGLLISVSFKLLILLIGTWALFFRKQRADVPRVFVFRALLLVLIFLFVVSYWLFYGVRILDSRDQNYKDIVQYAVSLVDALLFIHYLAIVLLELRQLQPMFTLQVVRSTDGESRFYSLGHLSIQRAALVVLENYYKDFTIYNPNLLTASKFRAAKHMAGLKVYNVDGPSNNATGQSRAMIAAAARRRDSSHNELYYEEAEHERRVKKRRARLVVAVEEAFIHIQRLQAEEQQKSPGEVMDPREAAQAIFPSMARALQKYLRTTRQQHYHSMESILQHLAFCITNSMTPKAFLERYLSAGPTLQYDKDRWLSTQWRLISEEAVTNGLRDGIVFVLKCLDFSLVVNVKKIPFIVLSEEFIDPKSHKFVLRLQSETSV
As to the kind of experiment: co-IP; myc-Vangl1 co-expressed with GFP-Vangl2, its truncations or GFP in T47D cells; immunoprecipitation with anti-myc antibody, western blot. For orientation: In western blotting, separated proteins are transferred to a membrane and probed.

The target of test [2] is T3, GFP-Vangl2 (mouse) (UniProt Q91ZD4).
T3 sequence: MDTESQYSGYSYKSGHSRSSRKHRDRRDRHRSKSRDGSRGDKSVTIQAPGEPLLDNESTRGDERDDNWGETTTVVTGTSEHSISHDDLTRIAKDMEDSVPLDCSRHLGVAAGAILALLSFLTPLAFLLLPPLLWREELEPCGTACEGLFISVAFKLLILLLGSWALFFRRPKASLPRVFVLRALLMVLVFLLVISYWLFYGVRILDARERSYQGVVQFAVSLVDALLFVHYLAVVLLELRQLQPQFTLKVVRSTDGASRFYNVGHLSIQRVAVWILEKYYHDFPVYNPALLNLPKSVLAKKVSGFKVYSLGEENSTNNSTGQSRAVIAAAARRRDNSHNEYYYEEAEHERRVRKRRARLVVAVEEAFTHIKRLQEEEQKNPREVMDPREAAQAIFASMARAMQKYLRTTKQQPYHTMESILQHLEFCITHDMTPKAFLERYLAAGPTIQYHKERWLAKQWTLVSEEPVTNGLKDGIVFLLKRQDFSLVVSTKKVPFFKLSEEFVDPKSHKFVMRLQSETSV
Description: co-IP; Vangl2 with two different tags (GFP or myc) co-expressed in T47D cells; immunoprecipitation with anti-GFP antibody and western blot with anti-myc antibody (the legend says immunoprecipitation with Myc antibody).

Test [3] addresses T3, GFP-Vangl2 (mouse). As to the kind of experiment: co-IP; myc-Vangl1 co-expressed with GFP-Vangl2 in T47D cells; immunoprecipitation with 2G4 mAb (Figure S8).

These are yes or no findings as the source states them, for the method shown. In cells and extracts the contact can be indirect. Some results given as binding are weak or reduced against the parent protein; the word gives no strength. For some of these results: Tags and fused reporters may be left off the sequences shown.

With GAPDH (from UniProt P04406 1-335), in test [1], the binding entry is reported as “no binding”.

B1: GFP-Vangl2 (protein, UniProt Q91ZD4 1-521)
chain: MDTESQYSGYSYKSGHSRSSRKHRDRRDRHRSKSRDGSRGDKSVTIQAPGEPLLDNESTRGDERDDNWGETTTVVTGTSEHSISHDDLTRIAKDMEDSVPLDCSRHLGVAAGAILALLSFLTPLAFLLLPPLLWREELEPCGTACEGLFISVAFKLLILLLGSWALFFRRPKASLPRVFVLRALLMVLVFLLVISYWLFYGVRILDARERSYQGVVQFAVSLVDALLFVHYLAVVLLELRQLQPQFTLKVVRSTDGASRFYNVGHLSIQRVAVWILEKYYHDFPVYNPALLNLPKSVLAKKVSGFKVYSLGEENSTNNSTGQSRAVIAAAARRRDNSHNEYYYEEAEHERRVRKRRARLVVAVEEAFTHIKRLQEEEQKNPREVMDPREAAQAIFASMARAMQKYLRTTKQQPYHTMESILQHLEFCITHDMTPKAFLERYLAAGPTIQYHKERWLAKQWTLVSEEPVTNGLKDGIVFLLKRQDFSLVVSTKKVPFFKLSEEFVDPKSHKFVMRLQSETSV
Turning to B1, the binding result with myc-Vangl1 and in the test with GFP-Vangl2 (mouse) [2] was “binds” throughout.

B2: myc-Vangl1 (protein, UniProt Q80Z96 1-526)
chain: MDTESTYSGYSYYSSHSKKSHRQGERTRERHKSPRNKDGRGSEKSVTIQAPAGEPLLANDSARTGAEEVQDDNWGETTTAITGTSEHSISQEDIARISKDMEDSVGLDCKRYLGLTVASFLGLLVFLTPIAFILLPQILWREELKPCGAICEGLLISVSFKLLILLIGTWALFFRKQRADVPRVFVFRALLLVLIFLFVVSYWLFYGVRILDSRDQNYKDIVQYAVSLVDALLFIHYLAIVLLELRQLQPMFTLQVVRSTDGESRFYSLGHLSIQRAALVVLENYYKDFTIYNPNLLTASKFRAAKHMAGLKVYNVDGPSNNATGQSRAMIAAAARRRDSSHNELYYEEAEHERRVKKRRARLVVAVEEAFIHIQRLQAEEQQKSPGEVMDPREAAQAIFPSMARALQKYLRTTRQQHYHSMESILQHLAFCITNSMTPKAFLERYLSAGPTLQYDKDRWLSTQWRLISEEAVTNGLRDGIVFVLKCLDFSLVVNVKKIPFIVLSEEFIDPKSHKFVLRLQSETSV
For the molecule B2, the binding entry in the test with GFP-Vangl2 (mouse) [3] was “binds”.

The record behind these values is paper PMC3460870.
